This test has as its target T1, Eap1–PA (eukaryotic translation initiation factor 4E-associated protein 1, protein A tagged) (S. cerevisiae) (UniProt P36041).
T1 sequence: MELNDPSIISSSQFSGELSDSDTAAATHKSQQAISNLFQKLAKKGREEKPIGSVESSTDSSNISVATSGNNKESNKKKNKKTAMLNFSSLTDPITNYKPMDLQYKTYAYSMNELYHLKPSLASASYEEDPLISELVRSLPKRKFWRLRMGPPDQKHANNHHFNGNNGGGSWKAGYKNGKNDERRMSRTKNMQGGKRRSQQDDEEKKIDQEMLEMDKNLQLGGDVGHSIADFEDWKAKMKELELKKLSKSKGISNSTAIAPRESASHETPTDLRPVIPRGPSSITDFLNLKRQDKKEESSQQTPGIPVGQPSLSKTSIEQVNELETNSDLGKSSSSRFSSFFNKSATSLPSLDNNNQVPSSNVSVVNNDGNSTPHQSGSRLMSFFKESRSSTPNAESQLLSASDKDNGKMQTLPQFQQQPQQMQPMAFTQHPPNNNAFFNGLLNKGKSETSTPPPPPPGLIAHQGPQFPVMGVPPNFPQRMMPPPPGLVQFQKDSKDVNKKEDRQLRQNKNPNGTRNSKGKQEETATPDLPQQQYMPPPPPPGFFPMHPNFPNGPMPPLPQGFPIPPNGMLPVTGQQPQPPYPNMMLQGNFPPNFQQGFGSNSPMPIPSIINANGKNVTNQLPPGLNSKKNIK
The test can be described thus: co-IP; PA-tagged Eap1 precipitated with IgG Sepharose beads from lysates of yeast cells starved in SD-N for 2 h; 4 °C, 2 to 10 h, lysis buffer with RNase inhibitor; Dhh1–3HA detected by western blot (anti-HA); RNase treatment (0.1 μg/μl, 8 to 10 h) significantly decreased the amount of Dhh1–3HA.

Results are given in words; binding and its absence hold for the method and conditions named. In cells and extracts the contact can be indirect. Tags and fused reporters may be left off the sequences shown.

Data on one molecule can be found in paper PMC6459490.

B1: Dhh1[1–425]–3HA (domain or fragment, UniProt P39517 1-425)
chain: MGSINNNFNTNNNSNTDLDRDWKTALNIPKKDTRPQTDDVLNTKGNTFEDFYLKRELLMGIFEAGFEKPSPIQEEAIPVAITGRDILARAKNGTGKTAAFVIPTLEKVKPKLNKIQALIMVPTRELALQTSQVVRTLGKHCGISCMVTTGGTNLRDDILRLNETVHILVGTPGRVLDLASRKVADLSDCSLFIMDEADKMLSRDFKTIIEQILSFLPPTHQSLLFSATFPLTVKEFMVKHLHKPYEINLMEELTLKGITQYYAFVEERQKLHCLNTLFSKLQINQAIIFCNSTNRVELLAKKITDLGYSCYYSHARMKQQERNKVFHEFRQGKVRTLVCSDLLTRGIDIQAVNVVINFDFPKTAETYLHRIGRSGRFGHLGLAINLINWNDRFNLYKIEQELGTEIAAIPATIDKSLYVAENDET
As for B1, the binding entry is reported as “no binding”.
